{"source": "the supplement of paper PMC8728848", "assay_in_all_cases": "glycan array binding signal (z-score within array); higher = stronger binding", "details_in_all_cases": "glycan notation: IUPAC condensed, linker removed", "key": {"[1]": {"target": "Fuc(a1-2)[Gal(a1-3)]Gal(b1-4)GlcNAc(b1-2)Man(a1-3)[Fuc(a1-2)[Gal(a1-3)]Gal(b1-4)GlcNAc(b1-2)Man(a1-6)]Man(b1-4)GlcNAc(b1-4)[Fuc(a1-6)]GlcNAc", "in_short": "(§1)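 Glycan array binding is given as a within-array Z-score, which can be read as non-binding when negative. The arrays, 3228 of them, came from the Consortium for Functional Glycomics database and were retained only where the protein sequence was available. Z-scores were averaged across arrays of the same protein sequence at different concentrations or buffers and across linkers.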"}, "[2]": {"target": "Fuc(a1-2)[Gal(a1-3)]Gal(b1-4)GlcNAc(b1-3)GalNAc", "in_short": "as §1"}, "[3]": {"target": "Fuc(a1-2)[Gal(a1-3)]Gal(b1-4)GlcNAc(b1-3)[Fuc(a1-2)[Gal(a1-3)]Gal(b1-4)GlcNAc(b1-6)]GalNAc", "in_short": "as §1"}, "[4]": {"target": "Fuc(a1-2)[Gal(a1-3)]Gal(b1-4)GlcNAc(b1-6)GalNAc", "in_short": "as §1"}, "[5]": {"target": "Fuc(a1-2)[Gal(a1-3)]Gal(b1-4)[Fuc(a1-3)]Glc", "in_short": "as §1"}, "[6]": {"target": "Fuc(a1-2)[Gal(a1-3)]Gal(b1-4)[Fuc(a1-3)]GlcNAc", "in_short": "as §1"}, "[7]": {"target": "Fuc(a1-2)[Gal(a1-3)]Gal(b1-4)[Fuc(a1-3)]GlcNAc(b1-3)GalNAc", "in_short": "as §1"}, "[8]": {"target": "Fuc(a1-2)[Gal(a1-4)]Gal(b1-4)GlcNAc", "in_short": "as §1"}, "[9]": {"target": "Fuc(a1-2)[GalNAc(a1-3)]Gal", "in_short": "as §1"}, "[10]": {"target": "Fuc(a1-2)[GalNAc(a1-3)]Gal(b1-3)GalNAc(a1-3)[Fuc(a1-2)]Gal(b1-4)GlcNAc", "in_short": "as §1"}, "[11]": {"target": "Fuc(a1-2)[GalNAc(a1-3)]Gal(b1-3)GalNAc(b1-3)Gal(a1-4)Gal(b1-4)Glc", "in_short": "as §1"}, "[12]": {"target": "Fuc(a1-2)[GalNAc(a1-3)]Gal(b1-3)GlcNAc", "in_short": "as §1"}, "[13]": {"target": "Fuc(a1-2)[GalNAc(a1-3)]Gal(b1-3)GlcNAc(b1-2)Man(a1-3)[Fuc(a1-2)[GalNAc(a1-3)]Gal(b1-3)GlcNAc(b1-2)Man(a1-6)]Man(b1-4)GlcNAc(b1-4)GlcNAc", "in_short": "as §1"}, "[14]": {"target": "Fuc(a1-2)[GalNAc(a1-3)]Gal(b1-3)GlcNAc(b1-2)Man(a1-3)[Fuc(a1-2)[GalNAc(a1-3)]Gal(b1-3)GlcNAc(b1-2)Man(a1-6)]Man(b1-4)GlcNAc(b1-4)[Fuc(a1-6)]GlcNAc", "in_short": "as §1"}, "[15]": {"target": "Fuc(a1-2)[GalNAc(a1-3)]Gal(b1-3)GlcNAc(b1-3)GalNAc", "in_short": "as §1"}, "[16]": {"target": "Fuc(a1-2)[GalNAc(a1-3)]Gal(b1-3)GlcNAc(b1-6)GalNAc", "in_short": "as §1"}, "[17]": {"target": "Fuc(a1-2)[GalNAc(a1-3)]Gal(b1-4)Glc", "in_short": "as §1"}, "[18]": {"target": "Fuc(a1-2)[GalNAc(a1-3)]Gal(b1-4)GlcNAc", "in_short": "as §1"}, "[19]": {"target": "Fuc(a1-2)[GalNAc(a1-3)]Gal(b1-4)GlcNAc(b1-2)Man", "in_short": "as §1"}, "[20]": {"target": "Fuc(a1-2)[GalNAc(a1-3)]Gal(b1-4)GlcNAc(b1-2)Man(a1-3)[Fuc(a1-2)[GalNAc(a1-3)]Gal(b1-4)GlcNAc(b1-2)Man(a1-6)]Man(b1-4)GlcNAc(b1-4)GlcNAc", "in_short": "as §1"}, "[21]": {"target": "Fuc(a1-2)[GalNAc(a1-3)]Gal(b1-4)GlcNAc(b1-2)Man(a1-3)[Fuc(a1-2)[GalNAc(a1-3)]Gal(b1-4)GlcNAc(b1-2)Man(a1-6)]Man(b1-4)GlcNAc(b1-4)[Fuc(a1-6)]GlcNAc", "in_short": "as §1"}, "[22]": {"target": "Fuc(a1-2)[GalNAc(a1-3)]Gal(b1-4)GlcNAc(b1-3)Gal(b1-4)GlcNAc", "in_short": "as §1"}, "[23]": {"target": "Fuc(a1-2)[GalNAc(a1-3)]Gal(b1-4)GlcNAc(b1-3)Gal(b1-4)GlcNAc(b1-3)Gal(b1-4)GlcNAc", "in_short": "as §1"}, "[24]": {"target": "Fuc(a1-2)[GalNAc(a1-3)]Gal(b1-4)GlcNAc(b1-3)GalNAc", "in_short": "as §1"}, "[25]": {"target": "Fuc(a1-2)[GalNAc(a1-3)]Gal(b1-4)GlcNAc(b1-3)[Fuc(a1-2)[GalNAc(a1-3)]Gal(b1-4)GlcNAc(b1-6)]GalNAc", "in_short": "as §1"}, "[26]": {"target": "Fuc(a1-2)[GalNAc(a1-3)]Gal(b1-4)GlcNAc(b1-6)GalNAc", "in_short": "as §1"}, "[27]": {"target": "Fuc(a1-2)[GalNAc(a1-3)]Gal(b1-4)[Fuc(a1-3)]GlcNAc", "in_short": "as §1"}, "[28]": {"target": "Fuc(a1-2)[GalNAc(a1-3)]Gal(b1-4)[Fuc(a1-3)]GlcNAc(b1-3)GalNAc", "in_short": "as §1"}, "[29]": {"target": "Fuc(a1-2)[GalNAc(a1-4)]Gal(b1-4)GlcNAc", "in_short": "as §1"}, "[30]": {"target": "Fuc(a1-2)[GalNAc(b1-3)]Gal", "in_short": "as §1"}, "[31]": {"target": "Fuc(a1-3)GlcNAc", "in_short": "as §1"}, "[32]": {"target": "Fuc(a1-3)[Gal(b1-4)]Glc6S", "in_short": "as §1"}, "[33]": {"target": "Fuc(a1-3)[Gal(b1-4)]GlcNAc", "in_short": "as §1"}, "[34]": {"target": "Fuc(a1-3)[Gal(b1-4)]GlcNAc(b1-2)Man", "in_short": "as §1"}, "[35]": {"target": "Fuc(a1-3)[Gal(b1-4)]GlcNAc(b1-2)Man(a1-3)[Fuc(a1-3)[Gal(b1-4)]GlcNAc(b1-2)Man(a1-6)]Man(b1-4)GlcNAc(b1-4)GlcNAc", "in_short": "as §1"}, "[36]": {"target": "Fuc(a1-3)[Gal(b1-4)]GlcNAc(b1-2)Man(a1-3)[Fuc(a1-3)[Gal(b1-4)]GlcNAc(b1-2)Man(a1-6)]Man(b1-4)GlcNAc(b1-4)[Fuc(a1-6)]GlcNAc", "in_short": "as §1"}, "[37]": {"target": "Fuc(a1-3)[Gal(b1-4)]GlcNAc(b1-3)Gal(b1-3)[Fuc(a1-4)]GlcNAc", "in_short": "as §1"}, "[38]": {"target": "Fuc(a1-3)[Gal(b1-4)]GlcNAc(b1-3)Gal(b1-4)[Fuc(a1-3)]GlcNAc", "in_short": "as §1"}, "[39]": {"target": "Fuc(a1-3)[Gal(b1-4)]GlcNAc(b1-3)Gal(b1-4)[Fuc(a1-3)]GlcNAc(b1-3)Gal(b1-4)[Fuc(a1-3)]GlcNAc", "in_short": "as §1"}, "[40]": {"target": "Fuc(a1-3)[Gal(b1-4)]GlcNAc(b1-3)GalNAc", "in_short": "as §1"}, "[41]": {"target": "Fuc(a1-3)[Gal(b1-4)]GlcNAc(b1-6)GalNAc", "in_short": "as §1"}, "[42]": {"target": "Fuc(a1-3)[Gal(b1-4)]GlcNAc(b1-6)[Gal(b1-3)GlcNAc(b1-3)]Gal(b1-4)Glc", "in_short": "as §1"}, "[43]": {"target": "Fuc(a1-3)[Gal(b1-4)]GlcNAc6S", "in_short": "as §1"}, "[44]": {"target": "Fuc(a1-3)[Gal3S(b1-4)]Glc", "in_short": "as §1"}, "[45]": {"target": "Fuc(a1-3)[Gal3S(b1-4)]GlcNAc", "in_short": "as §1"}}, "note": "The other results are listed elsewhere or left out.", "data": [{"binder": "SJCP1531 (Schistosoma japonicum) (protein) MFKVRIINLVNISTVLLLINLLQTKSQVNVEQLVTVLEVNIKAQLKNKTTEVLVEWNPLYQDNSMPEYRKLLDETCKLFLPFVNEKVPPSTYGGECTNANFSEAPQDGSYSRVNAELRLIYKYSDNPQIQTDRLQDDLNDREEFITSESSFVAYNPKFTVKIEKLFIPISESQTTPPPTTAKNDASKKDDDDNGGEDSKAPIDTFAMTASGNKGKKDDDDNGGEDSKAPIDTFAMTASGSKDERSTWTIIGIITLVVLIFVVIGGGITVFVKRC", "values": [{"measurement": "glycan array binding signal (z-score)", "setting": "[1]", "result": 1.76}, {"measurement": "glycan array binding signal (z-score)", "setting": "[2]", "result": -0.383}, {"measurement": "glycan array binding signal (z-score)", "setting": "[3]", "result": -0.164}, {"measurement": "glycan array binding signal (z-score)", "setting": "[4]", "result": -1.02}, {"measurement": "glycan array binding signal (z-score)", "setting": "[5]", "result": -0.555}, {"measurement": "glycan array binding signal (z-score)", "setting": "[6]", "result": 0.277}, {"measurement": "glycan array binding signal (z-score)", "setting": "[7]", "result": 0.545}, {"measurement": "glycan array binding signal (z-score)", "setting": "[8]", "result": 0.12}, {"measurement": "glycan array binding signal (z-score)", "setting": "[9]", "result": -0.36}, {"measurement": "glycan array binding signal (z-score)", "setting": "[10]", "result": -0.433}, {"measurement": "glycan array binding signal (z-score)", "setting": "[11]", "result": -1.4}, {"measurement": "glycan array binding signal (z-score)", "setting": "[12]", "result": 1.26}, {"measurement": "glycan array binding signal (z-score)", "setting": "[13]", "result": 0.166}, {"measurement": "glycan array binding signal (z-score)", "setting": "[14]", "result": 0.319}, {"measurement": "glycan array binding signal (z-score)", "setting": "[15]", "result": -0.335}, {"measurement": "glycan array binding signal (z-score)", "setting": "[16]", "result": -1.96}, {"measurement": "glycan array binding signal (z-score)", "setting": "[17]", "result": 0.645}, {"measurement": "glycan array binding signal (z-score)", "setting": "[18]", "result": -0.118}, {"measurement": "glycan array binding signal (z-score)", "setting": "[19]", "result": -0.514}, {"measurement": "glycan array binding signal (z-score)", "setting": "[20]", "result": -0.814}, {"measurement": "glycan array binding signal (z-score)", "setting": "[21]", "result": 0.585}, {"measurement": "glycan array binding signal (z-score)", "setting": "[22]", "result": -0.095}, {"measurement": "glycan array binding signal (z-score)", "setting": "[23]", "result": 0.03}, {"measurement": "glycan array binding signal (z-score)", "setting": "[24]", "result": 0.123}, {"measurement": "glycan array binding signal (z-score)", "setting": "[25]", "result": 1.54}, {"measurement": "glycan array binding signal (z-score)", "setting": "[26]", "result": -1.98}, {"measurement": "glycan array binding signal (z-score)", "setting": "[27]", "result": 0.432}, {"measurement": "glycan array binding signal (z-score)", "setting": "[28]", "result": 0.07}, {"measurement": "glycan array binding signal (z-score)", "setting": "[29]", "result": 0.747}, {"measurement": "glycan array binding signal (z-score)", "setting": "[30]", "result": 0.595}, {"measurement": "glycan array binding signal (z-score)", "setting": "[31]", "result": 0.494}, {"measurement": "glycan array binding signal (z-score)", "setting": "[32]", "result": 0.907}, {"measurement": "glycan array binding signal (z-score)", "setting": "[33]", "result": 0.487}, {"measurement": "glycan array binding signal (z-score)", "setting": "[34]", "result": 0.026}, {"measurement": "glycan array binding signal (z-score)", "setting": "[35]", "result": -1.06}, {"measurement": "glycan array binding signal (z-score)", "setting": "[36]", "result": 0.842}, {"measurement": "glycan array binding signal (z-score)", "setting": "[37]", "result": 0.404}, {"measurement": "glycan array binding signal (z-score)", "setting": "[38]", "result": -0.673}, {"measurement": "glycan array binding signal (z-score)", "setting": "[39]", "result": 0.726}, {"measurement": "glycan array binding signal (z-score)", "setting": "[40]", "result": 0.934}, {"measurement": "glycan array binding signal (z-score)", "setting": "[41]", "result": 1.34}, {"measurement": "glycan array binding signal (z-score)", "setting": "[42]", "result": 0.644}, {"measurement": "glycan array binding signal (z-score)", "setting": "[43]", "result": 1.41}, {"measurement": "glycan array binding signal (z-score)", "setting": "[44]", "result": -0.677}, {"measurement": "glycan array binding signal (z-score)", "setting": "[45]", "result": 0.241}]}]}
